Earlier results in US20030082168A1, “Compositions and methods for facilitating weight loss” (priority 2001, published 2003).
At least one compound was matched to its structure with a doubt left.

Settings: in vivo

## C[C@H]1O[C@H](O[C@H]2[C@H](O)[C@@H](O)[C@@H](O[C@H]3[C@H](O)[C@@H](O)C(O)O[C@@H]3CO)O[C@@H]2CO)[C@H](O)[C@@H](O)[C@@H]1N[C@H]1C=C(CO)[C@@H](O)[C@H](O)[C@H]1O (stereo partly drawn) [Acarbose]
  Emptying of a carbohydrate-free meal: did not alter
  Emptying of a carbohydrate-free meal given 2 h after sucrose ingestion: delayed
  Emptying of a mixed meal: delayed
